Test results published in the supplement of paper PMC4604168 (melanoma cell lines).
This is one part of the list. Many values rest on one well or one pass, so single values are uncertain.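 Cells were imaged in 1,536-well plates, and nuclei stained with an antibody against cleaved PARP were counted against all DNA-stained nuclei to give the apoptosis fraction. Screening doses were chosen to leave most cells alive, and resting and induced cleaved-PARP levels differ strongly between cell lines.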

Columns and labels:
Assay in all cases: cleaved PARP positive nuclei fraction relative to DMSO control; melanoma cells; higher = more apoptosis
Settings in all cases: library dose: low library concentration; 72 h
MeWo = tested on: MeWo
RPMI7951 = tested on: RPMI7951
RVH-421 = tested on: RVH-421
SkMel28 = tested on: SkMel28
SkMel2 = tested on: SkMel2
SkMel30 = tested on: SkMel30
SkMel5 = tested on: SkMel5
UACC257 = tested on: UACC257
UACC62 = tested on: UACC62
WM115 = tested on: WM115
WM1716 = tested on: WM1716
WM1745 = tested on: WM1745
WM3526 = tested on: WM3526
WM3619 = tested on: WM3619
WM451Lu = tested on: WM451Lu
MZ2-MEL = tested on: MZ2-MEL

| Structure (SMILES) | cleaved PARP positive nuclei fraction (MeWo) | cleaved PARP positive nuclei fraction (RPMI7951) | cleaved PARP positive nuclei fraction (RVH-421) | cleaved PARP positive nuclei fraction (SkMel28) | cleaved PARP positive nuclei fraction (SkMel2) | cleaved PARP positive nuclei fraction (SkMel30) | cleaved PARP positive nuclei fraction (SkMel5) | cleaved PARP positive nuclei fraction (UACC257) | cleaved PARP positive nuclei fraction (UACC62) | cleaved PARP positive nuclei fraction (WM115) | cleaved PARP positive nuclei fraction (WM1716) | cleaved PARP positive nuclei fraction (WM1745) | cleaved PARP positive nuclei fraction (WM3526) | cleaved PARP positive nuclei fraction (WM3619) | cleaved PARP positive nuclei fraction (WM451Lu) | cleaved PARP positive nuclei fraction (MZ2-MEL) |
| --- | --- | --- | --- | --- | --- | --- | --- | --- | --- | --- | --- | --- | --- | --- | --- | --- |
| O=C(Nc1cc(C(F)(F)F)cc(C(F)(F)F)c1)c1cc(Cl)ccc1O + Cc1cc([N+](=O)[O-])ccc1NS(=O)(=O)c1cc(Cl)ccc1Cl [FH535] (first compound 0.016 µM, partner dose 1 µM) | 59.1% | 71.9% | 144% | 75.3% | 96.6% | 105% | 94.6% | 414% | 118% | 77.5% | 110% | 86.7% | 67.5% | 91.5% | 76.5% | – |
| CC[C@]1(O)C[C@H]2CN(CCc3c([nH]c4ccccc34)[C@@](C(=O)OC)(c3cc4c(cc3OC)N(C=O)[C@H]3[C@@](O)(C(=O)OC)[C@H](OC(C)=O)[C@]5(CC)C=CCN6CC[C@]43[C@@H]65)C2)C1 [vincristine] + Cn1cnc2c(F)c(Nc3ccc(Br)cc3Cl)c(C(=O)NOCCO)cc21 [selumetinib] (first compound 0.0001 µM, partner dose 0.015 µM) | 217% | 276% | 101% | 52.6% | – | 107% | – | – | 392% | 1340% | 127% | 108% | 109% | 188% | 404% | 125% |
| N#CC[C@H](C1CCCC1)n1cc(-c2ncnc3[nH]ccc23)cn1 [ruxolitinib] + Cc1cc(N2CCOCC2)cc2[nH]c(-c3c(NC[C@@H](O)c4cccc(Cl)c4)cc[nH]c3=O)nc12 [BMS536924] (first compound 1 µM, partner dose 0.2 µM) | 735% | 80.7% | 46.2% | – | 56.9% | 132% | 140% | 107% | 140% | 87.8% | 180% | 127% | 110% | 111% | 142% | 297% |
| Cc1cc(Nc2cc(N3CCN(C)CC3)nc(Sc3ccc(NC(=O)C4CC4)cc3)n2)n[nH]1 [Tozasertib] + O=C(O)c1ccc2c(c1)nc(Nc1cccc(Cl)c1)c1ccncc12 [CX4945] (first compound 0.006 µM, partner dose 0.4 µM) | 106% | 66.4% | 81.5% | 44.6% | – | 55.2% | – | – | 108% | 118% | 39.5% | 105% | 100% | 103% | 43.3% | 108% |
| O=c1[nH]nc(Sc2ncc([N+](=O)[O-])s2)n1-c1ccc2c(c1)OCCO2 + CO[C@H]1C[C@@H]2CC[C@@H](C)[C@@](O)(O2)C(=O)C(=O)N2CCCC[C@H]2C(=O)O[C@H]([C@H](C)C[C@@H]2CC[C@@H](OCCO)[C@H](OC)C2)CC(=O)[C@H](C)/C=C(\C)[C@@H](O)[C@@H](OC)C(=O)[C@H](C)C[C@H](C)/C=C/C=C/C=C/1C [everolimus] (first compound 0.2 µM, partner dose 0.02 µM) | 83.4% | 235% | 141% | 161% | – | 117% | – | – | 130% | 175% | 50.3% | 109% | 183% | 145% | 142% | 160% |
| CC[C@]1(O)C[C@H]2CN(CCc3c([nH]c4ccccc34)[C@@](C(=O)OC)(c3cc4c(cc3OC)N(C=O)[C@H]3[C@@](O)(C(=O)OC)[C@H](OC(C)=O)[C@]5(CC)C=CCN6CC[C@]43[C@@H]65)C2)C1 [vincristine] + O=C1NC(=O)/C(=C/c2ccc(-c3ccc(F)cc3O)o2)S1 [AS252424] (first compound 0.0001 µM, partner dose 1 µM) | 85.3% | 102% | 25.2% | 167% | 39.7% | 139% | 78% | 325% | 266% | 1000% | 317% | 102% | 96.3% | 99.4% | 73.7% | – |
| COc1cc([C@@H]2c3cc4c(cc3[C@@H](O[C@@H]3O[C@@H]5CO[C@@H](C)O[C@H]5[C@H](O)[C@H]3O)[C@H]3COC(=O)[C@H]23)OCO4)cc(OC)c1O [etoposide] + C=CCn1c(=O)c2cnc(Nc3ccc(N4CCN(C)CC4)cc3)nc2n1-c1cccc(C(C)(C)O)n1 [MK1775] (first compound 0.02 µM, partner dose 0.02 µM) | 181% | 51.1% | – | 92.6% | 78.4% | 91.4% | 105% | 87.4% | 93.5% | 110% | 196% | 108% | 66.7% | 133% | 261% | 89.8% |
| O=c1[nH]nc(Sc2ncc([N+](=O)[O-])s2)n1-c1ccc2c(c1)OCCO2 + OCc1c[nH]c2ccccc12 [Indole-3-carbinol] (first compound 0.2 µM, partner dose 0.8 µM) | 119% | 97.2% | 77.9% | 37.8% | – | 254% | – | – | 76.6% | 131% | 131% | 101% | 210% | 80.1% | 102% | – |
| COc1cc([C@@H]2c3cc4c(cc3[C@@H](O[C@@H]3O[C@@H]5CO[C@@H](C)O[C@H]5[C@H](O)[C@H]3O)[C@H]3COC(=O)[C@H]23)OCO4)cc(OC)c1O [etoposide] + CCCS(=O)(=O)Nc1ccc(F)c(C(=O)c2c[nH]c3ncc(Cl)cc23)c1F [PLX4720] (first compound 0.02 µM, partner dose 0.08 µM) | 11% | 85.4% | 204% | 32.3% | – | 99.2% | – | – | 33.3% | 64.4% | 31.1% | 98.4% | 44.3% | 101% | 79.7% | – |
| O=C(Nc1cc(C(F)(F)F)cc(C(F)(F)F)c1)c1cc(Cl)ccc1O + Nc1ccn([C@@H]2O[C@H](CO)[C@@H](O)C2(F)F)c(=O)n1 [gemcitabine] (first compound 0.016 µM, partner dose 0.0004 µM) | 12.7% | 64.8% | 84% | 85.7% | – | 92.4% | – | – | 40.3% | 111% | 78.9% | 115% | 77.2% | 107% | 83.1% | – |
| CC[C@]1(O)C[C@H]2CN(CCc3c([nH]c4ccccc34)[C@@](C(=O)OC)(c3cc4c(cc3OC)N(C=O)[C@H]3[C@@](O)(C(=O)OC)[C@H](OC(C)=O)[C@]5(CC)C=CCN6CC[C@]43[C@@H]65)C2)C1 [vincristine] + Cn1c(=O)n(-c2ccc(C(C)(C)C#N)cc2)c2c3cc(-c4cnc5ccccc5c4)ccc3ncc21 [NVP-BEZ235] (first compound 0.0001 µM, partner dose 0.004 µM) | 178% | 81% | 142% | 115% | 136% | 662% | – | – | 247% | 1290% | 78.5% | 107% | 103% | 110% | 312% | – |
| CC[C@]1(O)C[C@H]2CN(CCc3c([nH]c4ccccc34)[C@@](C(=O)OC)(c3cc4c(cc3OC)N(C=O)[C@H]3[C@@](O)(C(=O)OC)[C@H](OC(C)=O)[C@]5(CC)C=CCN6CC[C@]43[C@@H]65)C2)C1 [vincristine] + C[C@@H](Oc1cc(-c2cnn(C3CCNCC3)c2)cnc1N)c1c(Cl)ccc(F)c1Cl [Crizotinib] (first compound 0.0001 µM, partner dose 0.2 µM) | 117% | 164% | 159% | 110% | 130% | 97.3% | – | – | 72.9% | 1020% | 149% | 112% | 241% | 135% | 49.8% | – |
| CC[C@]1(O)C[C@H]2CN(CCc3c([nH]c4ccccc34)[C@@](C(=O)OC)(c3cc4c(cc3OC)N(C=O)[C@H]3[C@@](O)(C(=O)OC)[C@H](OC(C)=O)[C@]5(CC)C=CCN6CC[C@]43[C@@H]65)C2)C1 [vincristine] + CC(=O)O[C@@]12CO[C@@H]1C[C@H](O)[C@@]1(C)C(=O)[C@H](O)C3=C(C)[C@@H](OC(=O)[C@H](O)[C@@H](NC(=O)OC(C)(C)C)c4ccccc4)C[C@@](O)([C@@H](OC(=O)c4ccccc4)[C@H]21)C3(C)C [Docetaxel] (first compound 0.0001 µM, partner dose 0.0001 µM) | 570% | 225% | 165% | 84.6% | 718% | 362% | – | – | 450% | 1610% | 100% | 146% | 151% | 166% | 153% | – |
| O=C(Nc1cc(C(F)(F)F)cc(C(F)(F)F)c1)c1cc(Cl)ccc1O + C[C@]1(c2nc3c(C(N)=O)cccc3[nH]2)CCCN1 [Veliparib] (first compound 0.016 µM, partner dose 1.4 µM) | 60.8% | 194% | 148% | 138% | – | 74.9% | – | – | 192% | 82.4% | 266% | 95.7% | 51.1% | 97% | 81.9% | – |
| N#CC[C@H](C1CCCC1)n1cc(-c2ncnc3[nH]ccc23)cn1 [ruxolitinib] + C=CCn1c(=O)c2cnc(Nc3ccc(N4CCN(C)CC4)cc3)nc2n1-c1cccc(C(C)(C)O)n1 [MK1775] (first compound 1 µM, partner dose 0.02 µM) | 229% | 103% | 119% | 120% | – | 81.5% | 40.1% | 111% | 276% | 69.8% | 129% | 115% | 117% | 80.8% | 195% | – |
| O=c1[nH]nc(Sc2ncc([N+](=O)[O-])s2)n1-c1ccc2c(c1)OCCO2 + CS(=O)(=O)c1ccc(C(=O)Nc2ccc(Cl)c(-c3ccccn3)c2)c(Cl)c1 [vismodegib] (first compound 0.2 µM, partner dose 1 µM) | 94% | 49% | 292% | 107% | – | 48.3% | – | – | 188% | 22.3% | 252% | 82.2% | 85.5% | 70.7% | 112% | – |
| O=C(/C=C/c1cccnc1)NCCCCC1CCN(C(=O)c2ccccc2)CC1 + Nc1nc(F)nc2c1ncn2[C@@H]1O[C@H](CO)[C@@H](O)[C@@H]1O [fludarabine] (first compound 0.01 µM, partner dose 0.2 µM) | 478% | 35.6% | 202% | 78.4% | 566% | 572% | – | – | 74.3% | 250% | 41.5% | 102% | 105% | 98.5% | 30.9% | – |

Reformatted as tab-separated lines: part of the list above.
Structure (SMILES)	cleaved PARP positive nuclei fraction (MeWo)	cleaved PARP positive nuclei fraction (RPMI7951)	cleaved PARP positive nuclei fraction (RVH-421)	cleaved PARP positive nuclei fraction (SkMel28)	cleaved PARP positive nuclei fraction (SkMel2)	cleaved PARP positive nuclei fraction (SkMel30)	cleaved PARP positive nuclei fraction (SkMel5)	cleaved PARP positive nuclei fraction (UACC257)	cleaved PARP positive nuclei fraction (UACC62)	cleaved PARP positive nuclei fraction (WM115)	cleaved PARP positive nuclei fraction (WM1716)	cleaved PARP positive nuclei fraction (WM1745)	cleaved PARP positive nuclei fraction (WM3526)	cleaved PARP positive nuclei fraction (WM3619)	cleaved PARP positive nuclei fraction (WM451Lu)	cleaved PARP positive nuclei fraction (MZ2-MEL)
O=c1[nH]nc(Sc2ncc([N+](=O)[O-])s2)n1-c1ccc2c(c1)OCCO2 + CO[C@H]1C[C@@H]2CC[C@@H](C)[C@@](O)(O2)C(=O)C(=O)N2CCCC[C@H]2C(=O)O[C@H]([C@H](C)C[C@@H]2CC[C@@H](OCCO)[C@H](OC)C2)CC(=O)[C@H](C)/C=C(\C)[C@@H](O)[C@@H](OC)C(=O)[C@H](C)C[C@H](C)/C=C/C=C/C=C/1C [everolimus] (first compound 0.2 µM, partner dose 0.02 µM)	83.4%	235%	141%	161%	–	117%	–	–	130%	175%	50.3%	109%	183%	145%	142%	160%
CC[C@]1(O)C[C@H]2CN(CCc3c([nH]c4ccccc34)[C@@](C(=O)OC)(c3cc4c(cc3OC)N(C=O)[C@H]3[C@@](O)(C(=O)OC)[C@H](OC(C)=O)[C@]5(CC)C=CCN6CC[C@]43[C@@H]65)C2)C1 [vincristine] + O=C1NC(=O)/C(=C/c2ccc(-c3ccc(F)cc3O)o2)S1 [AS252424] (first compound 0.0001 µM, partner dose 1 µM)	85.3%	102%	25.2%	167%	39.7%	139%	78%	325%	266%	1000%	317%	102%	96.3%	99.4%	73.7%	–
